# Source: the supplement of paper PMC8728848
# The list shows a part of the results.
# Key:
# Experiment in all cases: glycan array binding signal (z-score within array); higher = stronger binding
# Details in all cases: glycan notation: IUPAC condensed, linker removed
# [1] = target: Gal(b1-4)GlcNAc(b1-3)Gal(b1-4)[Fuc(a1-3)]GlcNAc(b1-3)Gal(b1-4)[Fuc(a1-3)]GlcNAc
# Outline: (§1)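 The binding signal is a Z-score computed within each array and averaged over linkers. Arrays of the same protein sequence at different concentrations or buffers were also averaged together. Data originate from 3228 arrays in the Consortium for Functional Glycomics database, kept only where the protein sequence was available.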
# [2] = target: Gal(b1-4)GlcNAc(b1-3)GalNAc
# Outline: as §1
# [3] = target: Gal(b1-4)GlcNAc(b1-3)[Fuc(a1-3)GlcNAc(b1-6)]Gal(b1-4)Glc
# Outline: as §1
# [4] = target: Gal(b1-4)GlcNAc(b1-3)[Gal(b1-4)GlcNAc(b1-6)]Gal(b1-4)GlcNAc
# Outline: as §1
# [5] = target: Gal(b1-4)GlcNAc(b1-3)[GlcNAc(b1-6)]Gal(b1-4)GlcNAc
# Outline: as §1
# [6] = target: Gal(b1-4)GlcNAc(b1-6)Gal(b1-4)GlcNAc
# Outline: as §1
# [7] = target: Gal(b1-4)GlcNAc(b1-6)GalNAc
# Outline: as §1
# [8] = target: Gal(b1-4)GlcNAc(b1-6)[Gal(b1-3)]GalNAc
# Outline: as §1
# [9] = target: Gal(b1-4)GlcNAc(b1-6)[Gal(b1-4)GlcNAc(b1-3)]GalNAc
# Outline: as §1
# [10] = target: Gal(b1-4)GlcNAc6P
# Outline: as §1
# [11] = target: Gal(b1-6)Gal
# Outline: as §1
# [12] = target: Gal3S(b1-3)GalNAc
# Outline: as §1
# [13] = target: Gal3S(b1-3)GlcNAc
# Outline: as §1
# [14] = target: Gal3S(b1-3)[Fuc(a1-4)]GlcNAc
# Outline: as §1
# [15] = target: Gal3S(b1-4)Glc
# Outline: as §1
# [16] = target: Gal3S(b1-4)Glc6S
# Outline: as §1
# [17] = target: Gal3S(b1-4)GlcNAc
# Outline: as §1
# [18] = target: Gal3S(b1-4)[Fuc(a1-3)]Glc6S
# Outline: as §1
# [19] = target: Gal3S(b1-4)[Fuc(a1-3)]GlcNAc
# Outline: as §1
# [20] = target: Gal3S(b1-4)[Fuc(a1-3)]GlcNAc6S
# Outline: as §1
# [21] = target: Gal3S4S(b1-4)GlcNAc
# Outline: as §1
# [22] = target: Gal3S6S(b1-4)GlcNAc
# Outline: as §1
# [23] = target: Gal3S6S(b1-4)GlcNAc6S
# Outline: as §1
# [24] = target: Gal4S(b1-4)GlcNAc
# Outline: as §1
# [25] = target: Gal4S6S(b1-4)GlcNAc
# Outline: as §1
# [26] = target: Gal6P(b1-4)GlcNAc
# Outline: as §1
# [27] = target: Gal6S(b1-3)GlcNAc
# Outline: as §1
# [28] = target: Gal6S(b1-3)GlcNAc6S
# Outline: as §1
# [29] = target: Gal6S(b1-4)Glc
# Outline: as §1
# [30] = target: Gal6S(b1-4)Glc6S
# Outline: as §1
# [31] = target: Gal6S(b1-4)GlcNAc
# Outline: as §1
# [32] = target: Gal6S(b1-4)GlcNAc6S
# Outline: as §1
# [33] = target: GalNAc(a1-3)Gal
# Outline: as §1
# [34] = target: GalNAc(a1-3)GalNAc
# Outline: as §1
# [35] = target: GalNAc(a1-3)GalNAc(a1-3)Gal(a1-4)Gal(b1-4)GlcNAc
# Outline: as §1
# [36] = target: GalNAc(a1-3)GalNAc(b1-3)Gal(a1-4)Gal(b1-4)Glc
# Outline: as §1
# [37] = target: GalNAc(b1-3)Gal
# Outline: as §1
# [38] = target: GalNAc(b1-3)Gal(a1-4)Gal(b1-4)GlcNAc
# Outline: as §1
# [39] = target: GalNAc(b1-3)Gal(a1-4)Gal(b1-4)GlcNAc(b1-3)Gal(b1-4)Glc
# Outline: as §1
# [40] = target: GalNAc(b1-3)Gal(a1-6)Gal(b1-4)Glc
# Outline: as §1
# [41] = target: GalNAc(b1-3)GalNAc
# Outline: as §1
# [42] = target: GalNAc(b1-3)GlcNAc
# Outline: as §1
# [43] = target: GalNAc(b1-4)Gal(b1-4)Glc
# Outline: as §1
# [44] = target: GalNAc(b1-4)GlcNAc
# Outline: as §1
# [45] = target: GalNAc(b1-4)GlcNAc(b1-2)Man
# Outline: as §1
binder,measurement,setting,value
Pbx2CASH domain (Cryptococcus neoformans) (protein) GIPGPNRLYRLSGPIIFTAADQEIATYGYPTGSERAVLRVEGRNTATAIQGDCRRCARVSVKNLVVDGNRKKLGRMRDFQLATGLVVLGGNEGQSIQNSWIKNPRGFTAIHIREGDKLQCSGARVEKNEIGPVGEEYDPEKDGDDPEMSPLGRPLADGVSIACRDSFIRDNTFRDNTDAAIVVYCSPGTLIHA,glycan array binding signal (z-score),[1],-0.056
same,glycan array binding signal (z-score),[2],-0.57
same,glycan array binding signal (z-score),[3],-0.704
same,glycan array binding signal (z-score),[4],-0.282
same,glycan array binding signal (z-score),[5],-0.507
same,glycan array binding signal (z-score),[6],-0.67
same,glycan array binding signal (z-score),[7],1.19
same,glycan array binding signal (z-score),[8],-0.606
same,glycan array binding signal (z-score),[9],0.304
same,glycan array binding signal (z-score),[10],-0.136
same,glycan array binding signal (z-score),[11],0.238
same,glycan array binding signal (z-score),[12],-0.637
same,glycan array binding signal (z-score),[13],-0.72
same,glycan array binding signal (z-score),[14],-0.056
same,glycan array binding signal (z-score),[15],0.134
same,glycan array binding signal (z-score),[16],0.057
same,glycan array binding signal (z-score),[17],-0.389
same,glycan array binding signal (z-score),[18],1.16
same,glycan array binding signal (z-score),[19],-0.272
same,glycan array binding signal (z-score),[20],-0.289
same,glycan array binding signal (z-score),[21],-0.502
same,glycan array binding signal (z-score),[22],-0.382
same,glycan array binding signal (z-score),[23],1.44
same,glycan array binding signal (z-score),[24],-0.599
same,glycan array binding signal (z-score),[25],-0.521
same,glycan array binding signal (z-score),[26],0.549
same,glycan array binding signal (z-score),[27],-0.043
same,glycan array binding signal (z-score),[28],0.572
same,glycan array binding signal (z-score),[29],-0.273
same,glycan array binding signal (z-score),[30],3.18
same,glycan array binding signal (z-score),[31],-0.006
same,glycan array binding signal (z-score),[32],0.11
same,glycan array binding signal (z-score),[33],-0.153
same,glycan array binding signal (z-score),[34],-0.991
same,glycan array binding signal (z-score),[35],-0.392
same,glycan array binding signal (z-score),[36],-0.232
same,glycan array binding signal (z-score),[37],0.143
same,glycan array binding signal (z-score),[38],-0.2
same,glycan array binding signal (z-score),[39],-0.602
same,glycan array binding signal (z-score),[40],-0.686
same,glycan array binding signal (z-score),[41],0.027
same,glycan array binding signal (z-score),[42],-0.437
same,glycan array binding signal (z-score),[43],0.407
same,glycan array binding signal (z-score),[44],-0.463
same,glycan array binding signal (z-score),[45],-0.167

# Rewritten with tabs: entries from further up.
binder	measurement	setting	value
Pbx2CASH domain (Cryptococcus neoformans) (protein) GIPGPNRLYRLSGPIIFTAADQEIATYGYPTGSERAVLRVEGRNTATAIQGDCRRCARVSVKNLVVDGNRKKLGRMRDFQLATGLVVLGGNEGQSIQNSWIKNPRGFTAIHIREGDKLQCSGARVEKNEIGPVGEEYDPEKDGDDPEMSPLGRPLADGVSIACRDSFIRDNTFRDNTDAAIVVYCSPGTLIHA	glycan array binding signal (z-score)	[25]	-0.521
same	glycan array binding signal (z-score)	[34]	-0.991
same	glycan array binding signal (z-score)	[39]	-0.602
